# According to paper PMC6408450:
# B1: COCH (protein, UniProt Q62507 27-552)
# chain: EGAVPIPVTCFTRGLDIRKEKADVLCPGGCSLEEFSVFGNIVYASVSSICGAAVHRGVIGTSGGPVRVYSLPGRENYSSVDANGIQSQMLSRWSASFAVTKGKSSTQEATGRAVSTAHPPSGKRLKKTPEKKTGNKDCKADIAFLIDGSFNIGQRRFNLQKNFVGKVALMLGIGTEGPHVGLVQASEHPKIEFYLKNFTSAKDVLFAIKEVGFRGGNSNTGKALKHTAQKFFTADTGVRKGIPKVVVVFIDGWPSDDIEEAGIVAREFGVNVFIVSVAKPIPEELGMVQDVAFVDKAVCRNNGFFSYHMPNWFGTTKYVKPLVQKLCTHEQMMCSKTCYNSVNIAFLIDGSSSVGDSNFRLMLEFVSNIAKTFEISDIGAKIAAVQFTYDQRTEFSFTDYNTKENVLAVLANIRYMSGGTATGDAIAFTVRNVFGPIRDSPNKNFLVIVTDGQSYDDVRGPAAAAHDAGITIFSVGVAWAPLDDLRDMASKPKESHAFFTREFTGLEPIVSDVIRGICRDFLESQQ
# B2: KRT10 (protein, UniProt P02535 1-570)
# chain: MSVLYSSSSKQFSSSRSGGGGGGGSVRVSSTRGSLGGGYSSGGFSGGSFSRGSSGGGCFGGSSGGYGGFGGGGSFGGGYGGSSFGGGYGGSSFGGGYGGSSFGGAGFGGGGSFGGGSFGGGSYGGGFGGGGFGGDGGSLLSGNGRVTMQNLNDRLASYMDKVRALEESNYELEGKIKEWYEKHGNSSQREPRDYSKYYKTIEDLKGQILTLTTDNANVLLQIDNARLAADDFRLKYENEVTLRQSVEADINGLRRVLDELTLSKSDLEMQIESLNEELAYLKKNHEEEMRDLQNVSTGDVNVEMNAAPGVDLTQLLNNMRNQYEQLAEKNRKDAEEWFNQKSKELTTEIDSNIEQMSSHKSEITELRRTVQGLEIELQSQLALKQSLEASLAETEGRYCVQLSQIQSQISALEEQLQQIRAETECQNAEYQQLLDIKTRLENEIQTYRSLLEGEGSSSGGGGGRRGGSGGGSYGGSSGGGSYGGSSGGGGSYGGSSGGGGSYGGGSSGGGSHGGSSGGGYGGGSSSGGAGGHGGSSGGGYGGGSSSGGQGGSGGFKSSGGGDQSSKGPRY
# B3: KRT1 (protein, UniProt P04104 1-637)
# chain: MSLQCSSRSLCRGGGGSRNFSSGSAGLVSFQRRSTSSSMRRSGGGGGGRFSGGGFCGSSGSGFGSKSLMNLGGGRSISKSVAGGGGSFCGGFGGGSYGGGGFGGGSYGGGGFGGGSFGGGGFGGSGFGGGLGGGGGFGSGGGFGGGRFGSMGPVCPPGGIQEVTINQSLLQPLNVEVDPQIQKVKSQEREQIKSLNDKFASFIDKVRFLEQQNQVLQTKWELLQQVDTTTRTQNLDPFFENYISILRRKVDSLKSDQSRMDSELKNMQDLVEEYRTKYEDEINKRTNAENEFVTIKKDVDSAYMTKVELQAKADALQQDIDFFSALYQMEMSQMQTQISETNVVLSMDNNRSLDLDGIISEVKAQYDSICQRSKAEAETFYQSKYEELQITAGKHGDSVRNTKMEISELNRMIQRLRSEIDGCKKQISQIQQNINDAEQRGEKALKDAQNKLNEIEDALSQCKEDLARLLRDFQELMNTKLALDMEIATYKKLLEGEEIRMSGECTPNVSVSVSTSHTSMSGSSSRGGGSGGGRYGGGGSYGGGSGGGSYGGSSGGGGSGGSYGGGSGGGSYGGGSGGGSSGSHRGGSGGGGGSSGGSYGGSSGGGRGGSSSGGGGVKSSGSSTVKFVSTSYSRGTK
# B4: MPZ (protein, UniProt P27573 30-248)
# chain: IVVYTDREIYGAVGSQVTLHCSFWSSEWVSDDISFTWRYQPEGGRDAISIFHYAKGQPYIDEVGAFKERIQWVGDPRWKDGSIVIHNLDYSDNGTFTCDVKNPPDIVGKTSQVTLYVFEKVPTRYGVVLGAVIGGILGVVLLLLLLFYLIRYCWLRRQAALQRRLSAMEKGRFHKSSKDSSKRGRQTPVLYAMLDHSRSTKAASEKKSKGLGESRKDKK
# B5: SERPINH1 (protein, UniProt P19324 18-417)
# chain: AEVKKPLEAAAPGTAEKLSSKATTLAERSTGLAFSLYQAMAKDQAVENILLSPLVVASSLGLVSLGGKATTASQAKAVLSAEKLRDEEVHTGLGELLRSLSNSTARNVTWKLGSRLYGPSSVSFADDFVRSSKQHYNCEHSKINFRDKRSALQSINEWASQTTDGKLPEVTKDVERTDGALLVNAMFFKPHWDEKFHHKMVDNRGFMVTRSYTVGVTMMHRTGLYNYYDDEKEKLQMVEMPLAHKLSSLIILMPHHVEPLERLEKLLTKEQLKAWMGKMQKKAVAISLPKGVVEVTHDLQKHLAGLGLTEAIDKNKADLSRMSGKKDLYLASVFHATAFEWDTEGNPFDQDIYGREELRSPKLFYADHPFIFLVRDNQSGSLLFIGRLVRPKGDKMRDEL
# Target: LIM only protein 7 (LMO7) (mouse (endogenous in P6 organ of Corti))
# Test: affinity purification with mass spectrometry; Co-IP/MS: endogenous LMO7 precipitated from lysate of forty P6 mouse cochleae with monoclonal LMO7 antibody B-7 overnight at 4 °C, Protein G beads, lysis buffer 50 mM Tris pH 8, 100 mM NaCl, 0.5% NP40, 1 mM EGTA, 1 mM EDTA; beads washed three times; on-bead trypsin digest, LC-MS/MS; equivalent Lmo7 KO tissue as negative control
row,binding,Binder
1,binds,B1
2,binds,B2
3,binds,B3
4,binds,B4
5,binds,B5

# Results are given in words; binding and its absence hold for the method and conditions named. Binding seen in cells or lysates may run through a third protein. Here binding means that the protein was enriched with, or labelled near, the bait; the list need not be complete.
